# According to PubChem BioAssay AID2551 (National Center for Advancing Translational Sciences (NCATS), 2010):
# Chains of the proteins cited; added tags and fusions are not shown. Lines headed by an entry give the natural chain unless they say otherwise; changes in a name come on top.
# UniProt P51450: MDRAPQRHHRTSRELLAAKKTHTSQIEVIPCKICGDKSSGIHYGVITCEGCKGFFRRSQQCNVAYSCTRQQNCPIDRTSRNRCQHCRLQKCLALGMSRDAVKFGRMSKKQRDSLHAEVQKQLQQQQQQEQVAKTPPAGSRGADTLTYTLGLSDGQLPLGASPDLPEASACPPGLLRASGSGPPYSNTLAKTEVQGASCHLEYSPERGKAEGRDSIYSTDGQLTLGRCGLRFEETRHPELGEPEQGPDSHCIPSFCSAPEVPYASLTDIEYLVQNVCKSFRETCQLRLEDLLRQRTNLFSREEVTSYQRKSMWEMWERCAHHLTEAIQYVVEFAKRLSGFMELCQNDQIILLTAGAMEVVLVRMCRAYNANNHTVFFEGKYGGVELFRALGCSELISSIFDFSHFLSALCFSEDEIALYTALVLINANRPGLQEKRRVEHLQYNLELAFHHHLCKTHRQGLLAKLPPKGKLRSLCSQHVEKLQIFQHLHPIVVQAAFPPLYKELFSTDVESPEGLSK
# Out of some 310,000 compounds screened, about 17,000 (5.5%) were called active. The inconclusive results got no clear call from the source; some entries with a clear call stand among them for comparison. Calls follow the shape of the dose curve; as a rule, active = well fitted inhibition curve with a large enough effect; inconclusive = small, poorly fitted or top-dose-only effect, or effect the other way; inactive = no such curve, though single readings can be large or run the other way. Potencies beside an inconclusive call are fits to weak or partial responses and may not hold up.
# Target: Nuclear receptor ROR-gamma (Mus musculus) (UniProt P51450)
# Assay: qHTS for inhibitors of ROR gamma transcriptional activity; also: nearly all actives have a fitted effect of over 60% in size
# Details: Drosophila S2 Gal4-RORgamma UAS-luciferase reporter, 20 h; activity change, negative = inhibition: at 53.6 µM (top of the series)
# Outline: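 Luminescence from a UAS-regulated Photinus luciferase reporter in stably transfected Drosophila Schneider cells is measured; decreased signal marks ROR gamma inhibition. Fusion expression is induced by 700 uM copper sulfate for 20 hr.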
# % is scaled to controls: 0 for no effect and ±100 for the full control effect; potency is read from the fitted curve at half-maximal effect.
Structure (SMILES),Potency,"activity change, negative = inhibition"
O=C(NCCNc1ccc([N+](=O)[O-])cc1C(F)(F)F)c1ccccc1F,"inconclusive: 6.31 µM [activator, full curve]",–
CCn1c(C(=O)N2CCCC(C(=O)NCCCc3ccccc3)C2)cc2sccc21 (stereo not drawn),"inconclusive: 1.12 µM [activator, partial curve]",–
CC(=O)c1cccc(NC(=S)NC(=O)c2ccc(C)cc2)c1,active: 10 µM,–
Cc1ccc(NC(=S)N(Cc2ccc(Br)cc2)Cc2ccc(C(=O)O)cc2)cc1C,inactive,–
COc1ccc(OC)c(C2=Nn3c(nnc3-c3ccccc3O)SC2)c1,"inconclusive: 11.2 µM [inhibitor, partial curve, poor fit]",–
COc1ccc(CNC(=O)CSc2ccsc2[N+](=O)[O-])cc1,"inconclusive: 35.5 µM [activator, single point]",–
CCCCC(=O)NNC(=S)NC(=O)C(c1ccccc1)c1ccccc1,"inconclusive: 2.82 µM [inhibitor, partial curve]",–
CNC(=S)N/N=C/c1c(C)nn(-c2ccc(F)cc2)c1Cl,active: 2.82 µM,–
CCCNC(=O)[C@H]1N2C(=O)c3c(ccc(OC)c3OC)C2SC1(C)C (stereo partly drawn),"inconclusive: 6.31 µM [activator, full curve, poor fit]",–
O=C(CSc1c(Cl)cccc1Cl)NC1CCCc2ccccc21 (stereo not drawn),"inconclusive: 12.6 µM [inhibitor, partial curve, poor fit]",–
Cn1c(/C(C#N)=C/C2CC=CCC2)nc2ccccc21 (stereo not drawn),"inconclusive: 15.8 µM [inhibitor, single point]",–
COc1ccccc1-n1c(-c2cccnc2)n[nH]c1=S,–,inactive: 9.71% [at 0.365 µM]
CCN(CC)c1ccc(/C=N/NC(=O)c2cnccn2)cc1,inactive,–
CCCn1c(C(CO)Nc2nc(-c3cccc(Br)c3)cs2)nc2ccccc21 (stereo not drawn),active: 12.6 µM,–
Cc1cc(O)ccc1NC(=O)CCN1C(=O)c2ccc([N+](=O)[O-])cc2C1=O,"inconclusive: 8.91 µM [inhibitor, partial curve]",–
CCC(=O)Nc1nc2ccccc2n1Cc1ccccc1,active: 0.708 µM,–
Cc1n[nH]c(=S)n(NC(=O)/C=C/C(=O)Nn2c(=S)[nH]nc(C)c2=O)c1=O,inactive,–
Cc1c(C(=O)NCCNc2ncc(C(F)(F)F)cc2Cl)cccc1[N+](=O)[O-],"inconclusive: 28.2 µM [activator, single point]",–
O=C(Cn1cnc2cc([N+](=O)[O-])ccc2c1=O)NCc1ccccc1,inactive,–
Cc1cccc(-c2c(NC(=O)c3ccco3)oc3ccc(Cl)cc3c2=O)c1,inactive,–
CCOc1ccc(/C=N/Nc2ccccn2)cc1OC,active: 10 µM,–
CN(C)c1ccc(C(=O)N/N=C/c2ccccn2)cc1,active: 12.6 µM,–
Cc1cc(C)c2[nH]c(=O)c(CN(Cc3cccs3)C(=S)NCC3CCCO3)cc2c1 (stereo not drawn),"inconclusive: 17.8 µM [activator, single point]",–
Cc1ccnc(N=Cc2c(O)ccc3oc4c(c23)CCCC4)c1,"inconclusive: 35.5 µM [inhibitor, single point]",–
COc1ccc(NC(=O)c2ccc3c(=O)n(CC4CCCO4)c(=S)[nH]c3c2)c(OC)c1 (stereo not drawn),"inconclusive: 3.98 µM [inhibitor, full curve, poor fit]",–

# Of the compounds above, these contain sulfur.
Structure (SMILES),Potency,"activity change, negative = inhibition"
CCn1c(C(=O)N2CCCC(C(=O)NCCCc3ccccc3)C2)cc2sccc21 (stereo not drawn),"inconclusive: 1.12 µM [activator, partial curve]",–
CC(=O)c1cccc(NC(=S)NC(=O)c2ccc(C)cc2)c1,active: 10 µM,–
Cc1ccc(NC(=S)N(Cc2ccc(Br)cc2)Cc2ccc(C(=O)O)cc2)cc1C,inactive,–
COc1ccc(OC)c(C2=Nn3c(nnc3-c3ccccc3O)SC2)c1,"inconclusive: 11.2 µM [inhibitor, partial curve, poor fit]",–
COc1ccc(CNC(=O)CSc2ccsc2[N+](=O)[O-])cc1,"inconclusive: 35.5 µM [activator, single point]",–
CCCCC(=O)NNC(=S)NC(=O)C(c1ccccc1)c1ccccc1,"inconclusive: 2.82 µM [inhibitor, partial curve]",–
CNC(=S)N/N=C/c1c(C)nn(-c2ccc(F)cc2)c1Cl,active: 2.82 µM,–
CCCNC(=O)[C@H]1N2C(=O)c3c(ccc(OC)c3OC)C2SC1(C)C (stereo partly drawn),"inconclusive: 6.31 µM [activator, full curve, poor fit]",–
O=C(CSc1c(Cl)cccc1Cl)NC1CCCc2ccccc21 (stereo not drawn),"inconclusive: 12.6 µM [inhibitor, partial curve, poor fit]",–
COc1ccccc1-n1c(-c2cccnc2)n[nH]c1=S,–,inactive: 9.71% [at 0.365 µM]
CCCn1c(C(CO)Nc2nc(-c3cccc(Br)c3)cs2)nc2ccccc21 (stereo not drawn),active: 12.6 µM,–
Cc1n[nH]c(=S)n(NC(=O)/C=C/C(=O)Nn2c(=S)[nH]nc(C)c2=O)c1=O,inactive,–
Cc1cc(C)c2[nH]c(=O)c(CN(Cc3cccs3)C(=S)NCC3CCCO3)cc2c1 (stereo not drawn),"inconclusive: 17.8 µM [activator, single point]",–
COc1ccc(NC(=O)c2ccc3c(=O)n(CC4CCCO4)c(=S)[nH]c3c2)c(OC)c1 (stereo not drawn),"inconclusive: 3.98 µM [inhibitor, full curve, poor fit]",–

# As entered above.
# Cc1ccc(NC(=S)N(Cc2ccc(Br)cc2)Cc2ccc(C(=O)O)cc2)cc1C – Potency: inactive
# COc1ccccc1-n1c(-c2cccnc2)n[nH]c1=S – activity change, negative = inhibition: inactive: 9.71% [at 0.365 µM]

# Continuation.

Structure (SMILES),Potency,"activity change, negative = inhibition"
Cc1ccc(CNc2ccc(O)cc2)cc1,"inconclusive: 14.1 µM [inhibitor, single point]",–
COc1ccc(OC)c(NC(=O)c2ccc(-c3cccs3)cc2)c1,"inconclusive: 3.55 µM [inhibitor, single point]",–
COC(=O)c1ccccc1NC(=O)Nc1cccs1,"inconclusive: 17.8 µM [inhibitor, single point]",–
O=C(Nc1nc2c(s1)CCCC2)c1cccs1,"inconclusive: 12.6 µM [inhibitor, single point]",–
COc1ccc(Cl)cc1NC(=S)N1CCC(c2ccc(C)cc2)C1 (stereo not drawn),active: 12.6 µM,–
COc1cc(-c2nnc(CSc3nnc(Nc4ccc(Oc5ccccc5)cc4)s3)o2)cc(OC)c1OC,"inconclusive: 3.16 µM [activator, partial curve, poor fit]",–
CC(=O)Oc1cc2c(C(=O)NCCCN3CCOCC3)c(C)oc2c2ccccc12,"inconclusive: 12.6 µM [inhibitor, partial curve]",–
NC1=CC(=O)c2cccc3cccc1c23,active: 11.2 µM,–
O=C(Nc1ccccc1C(=O)Nc1nnc(C(F)(F)F)s1)c1ccccc1Cl,"inconclusive: 31.6 µM [inhibitor, single point]",–
CN1C(=O)/C(=C/c2ccc(-c3ccccc3[N+](=O)[O-])o2)SC1=Nc1ccc(Cl)c(C(=O)O)c1,inactive,–
COc1cccc(-c2ccc(=O)n(CC(=O)NCCN3CCOCC3)n2)c1,"inconclusive: 3.55 µM [inhibitor, partial curve, poor fit]",–
Cc1ccc(-n2nc3c(N4CCC(C(=O)NCCc5ccccc5C)CC4)nnc(C)c3c2C)cc1,"inconclusive: 35.5 µM [inhibitor, single point]",–
Cc1ccc(C)c(NC(=S)N(C)CCc2ccccn2)c1,"inconclusive: 20 µM [inhibitor, single point]",–
Cc1cc(SCC(=O)N/N=C/c2ccc(O)cc2O)nc2ccccc12,inactive,–
Clc1ccc(-c2noc(COc3ccccc3)n2)cc1,"inconclusive: 3.16 µM [activator, full curve]",–
Oc1ccccc1C1CC(c2cccs2)=NC(c2ccc(Cl)cc2)N1 (stereo not drawn),"inconclusive: 35.5 µM [inhibitor, single point]",–
O=C(N/N=C\c1cc2c(cc1Cl)OCO2)c1ccc(Br)s1,"inconclusive: 5.01 µM [inhibitor, partial curve]",–
O=C(O)/C=C/C=C/c1ccccc1,inactive,–
CC(=O)CCC(=O)NC1CCCc2c1cnn2-c1ccc(C(C)(C)C)cc1 (stereo not drawn),"inconclusive: 11.2 µM [activator, partial curve]",–
Cc1nc(SCC(=O)NCCc2ccccc2)c2oc3ccccc3c2n1,inactive,–
CCOC(=O)c1c(C2CC2)csc1NC(C)=O,inactive,–
Cc1ccccc1-c1nc(CS(=O)(=O)CC(=O)NCc2ccccc2)c(C)o1,"inconclusive: 35.5 µM [activator, single point]",–
Nc1ncnc2c1c(I)cn2C1OC(CO)C(O)C1O (stereo not drawn),active: 5.62 µM,–
Cc1cccc(NC(=S)NNC(=O)c2csc3c2CCCC3)c1,"inconclusive: 0.708 µM [inhibitor, full curve]",–
CCOc1ccccc1NC(=O)C(=O)CC(=O)c1cccc(OC)c1,active: 3.55 µM,–

Structure (SMILES),Potency,"activity change, negative = inhibition"
Cc1ccccc1OCC(=O)Nc1cccc(C(=O)O)c1,active: 2.51 µM,–
Cc1cc(C)c(C(=O)NC2CCCc3c2cnn3-c2cccc(C)c2C)o1 (stereo not drawn),"inconclusive: 20 µM [activator, single point]",–
Cc1ccc(-n2c(-c3cccc(C)c3)n[nH]c2=S)cc1,active: 3.16 µM,–
O=C(c1cccc2cccc(O)c12)N1CCCCC1,"inconclusive: 7.94 µM [inhibitor, single point]",–
Cc1ccc2cccc(OCc3ccc(Br)cc3)c2n1,"inconclusive: 15.8 µM [inhibitor, single point]",–
CC(=O)Nc1ccc(Nc2nc(C)nc3c2nnn3Cc2ccccc2Cl)cc1,"inconclusive: 11.2 µM [activator, partial curve, poor fit]",–
OC(CNCCc1ccc(C(F)(F)F)cc1)COc1ccc2ccccc2c1 (stereo not drawn),active: 15.8 µM,–
CC(C)OC(=O)c1ccccc1C(=O)c1ccc(N)c([N+](=O)[O-])c1,inactive,–
COc1ccccc1-c1coc2c(CN3C(C)CCCC3C)c(O)ccc2c1=O (stereo not drawn),inactive,–
CCn1c(=N)n(CC(=O)C(C)(C)C)c2ccccc21,"inconclusive: 11.2 µM [inhibitor, single point]",–
Cc1c(Br)ccc(NC(=O)CCN2C(=O)C3C4CCC(C4)C3C2=O)c1C (stereo not drawn),"inconclusive: 1 µM [activator, full curve, poor fit]",–
COc1ccc(C2(c3ccc(OC)cc3)NC(=O)N(CC(=O)Nc3ccccc3)C2=O)cc1,"inconclusive: 35.5 µM [activator, single point]",–
CCC(C(=O)Nc1ccccc1F)n1nc(C)c2c(C)n(-c3ccccc3)nc2c1=O (stereo not drawn),inactive,–
COc1ccc(C(=O)COC(=O)C(CC(C)C)N2C(=O)c3ccccc3C2=O)cc1 (stereo not drawn),"inconclusive: 4.47 µM [activator, single point]",–
CCCCNC(=S)Nc1ccccc1F,active: 11.2 µM,–
O=C(O)c1ccc(COc2ccccc2Cl)cc1,inactive,–
COc1ccc(OCc2cc(C(=O)N(Cc3nccn3C)C(C)C)no2)c2ccccc12,inactive,–
CC1CCC(C(C)C)C(OC(=O)Cn2c(-c3ccc(Cl)cc3)[n+](C)c3ccccc32)C1 (stereo not drawn),"inconclusive: 35.5 µM [inhibitor, single point]",–
Clc1ccc(-c2nc(/C=N/N3CCOCC3)c3ccccn23)cc1,"inconclusive: 35.5 µM [inhibitor, single point]",–
CC(C)OC(=O)CCc1nc2ccccc2[nH]c1=O,"inconclusive: 11.2 µM [inhibitor, single point]",–
COc1ccc2cc3[n+](cc2c1OC)CCc1cc2c(cc1-3)OCO2,"inconclusive: 7.94 µM [activator, partial curve]",–
CC(C)Oc1ccc(C(=O)Nc2ccc(N3CCCC3)cc2)cc1,"inconclusive: 3.98 µM [activator, full curve]",–
CCOC(=O)C(Cc1c[nH]c2ccccc12)NC(=O)c1ccccc1Br (stereo not drawn),active: 8.91 µM,–
